Assay results reported in patent US20240270840A1 (NECTIN THERAPEUTICS, published 2024).
These are yes or no findings as the source states them, for the method shown. Some binding calls cover weakened binding; strength is not graded here.

B1: anti-CD112R mAb clone 13 (murine, hybridoma) (antibody, mouse IgG1, V domains shown)
VH: QVQLQQPGAELVKPGTSVKLSCKASGYNFTSYWINWVKLRPGQGLEWIGDIYPGSYIPNYNEKFKNKATLTVDTSSSTAYMQLTSLASEDSALYYCAGGYFDVWGAGTTVTVSS
VL: DIVMTQSPSSLSVSAGEKVTMSCKSSQSLLNSGNQKNYLAWYQQKPGQPPKLLIYGASTRESGVPDRFTGSGSGTDFTLTISSVQAEDLAVYYCQNDHSYPYTFGGGTKLEIK
B2: VH0 N28T Vk0 (antibody, V domains shown)
VH: QVQLQQPGAELVKPGTSVKLSCKASGYTFTSYWINWVKLRPGQGLEWIGDIYPGSYIPNYNEKFKNKATLTVDTSSSTAYMQLTSLASEDSALYYCAGGYFDVWGAGTTVTVSS
VL: DIVMTQSPSSLSVSAGEKVTMSCKSSQSLLSSGNQKNYLAWYQQKPGQPPKLLIYGASTRESGVPDRFTGSGSGTDFTLTISSVQAEDLAVYYCQNDHSYPYTFGGGTKLEIK
notes: Variant of VH0K0; also called VH0K0 N28T
B3: VH0K1 N28T (antibody, V domains shown)
VH: QVQLQQPGAELVKPGTSVKLSCKASGYTFTSYWINWVKLRPGQGLEWIGDIYPGSYIPNYNEKFKNKATLTVDTSSSTAYMQLTSLASEDSALYYCAGGYFDVWGAGTTVTVSS
VL: DIVMTQSPDSLSVSLGERATINCKSSQSLLSSGNQKNYLAWYQQKPGQPPKLLIYGASTRESGVPDRFTGSGSGTDFTLTISSLQAEDVAVYYCQNDHSYPYTFGQGTKLEIK
B4: VH0K2 N28T (antibody, V domains shown)
VH: QVQLQQPGAELVKPGTSVKLSCKASGYTFTSYWINWVKLRPGQGLEWIGDIYPGSYIPNYNEKFKNKATLTVDTSSSTAYMQLTSLASEDSALYYCAGGYFDVWGAGTTVTVSS
VL: DIVMTQSPDSLAVSLGERATINCKSSQSLLSSGNQKNYLAWYQQKPGQPPKLLIYGASTRESGVPDRFTGSGSGTDFTLTISSLQAEDVAVYYCQNDHSYPYTFGQGTKLEIK
B5: VH0K3 N28T (antibody, V domains shown)
VH: QVQLQQPGAELVKPGTSVKLSCKASGYTFTSYWINWVKLRPGQGLEWIGDIYPGSYIPNYNEKFKNKATLTVDTSSSTAYMQLTSLASEDSALYYCAGGYFDVWGAGTTVTVSS
VL: DIVMTQSPDSLAVSLGERATINCKSSQSLLSSGNQKNYLAWYQQKPGQPPKLLIYGASTRESGVPDRFSGSGSGTDFTLTISSLQAEDVAVYYCQNDHSYPYTFGQGTKLEIK
B6: Clone 15 (antibody, V domains shown)
VH: QVQLQQPGAELVKPGTSVKLSCKASGYNFTSYWINWVKLRPGQGLEWIGDIFPGSYSPNYNKKFKRKATLTVDTSSSTAYMQLSSLASEDSALYYCAGGYFDVWGAGTTVTVSS
VL: DIVMTQSPSSLSVSAGEKVTMSCKSSQSLLNSGSQKNYLAWYQQKPGQPPKLLIYGASTRESGVPDRFTGSGSGTDFTLTISFVQAEDLAVYYCQNDHSYPYTFGGGTKLEIK
B7: H11K1 (full humanized antibody) (antibody, V domains shown)
VH: QVQLVQSGAEVKKPGSSVKVSCKASGYTFTSYWINWVRQAPGQGLEWIGDIYPGSYIPNYNEKFKNRATLTVDTSASTAYMELSSLRSEDTAVYYCAGGYFDVWGQGTTVTVSS
VL: DIVMTQSPDSLSVSLGERATINCKSSQSLLSSGNQKNYLAWYQQKPGQPPKLLIYGASTRESGVPDRFTGSGSGTDFTLTISSLQAEDVAVYYCQNDHSYPYTFGQGTKLEIK
notes: Humanized full antibody, human IgG1; also called VH11K1
B8: VH9K0 (antibody, V domains shown)
VH: QVQLVQSGAEVKKPGSSVKVSCKASGYTFTSYWINWVKLAPGQGLEWIGDIYPGSYIPNYNEKFKNRATLTVDTSASTAYMELSSLRSEDTAVYYCAGGYFDVWGQGTTVTVSS
VL: DIVMTQSPSSLSVSAGEKVTMSCKSSQSLLSSGNQKNYLAWYQQKPGQPPKLLIYGASTRESGVPDRFTGSGSGTDFTLTISSVQAEDLAVYYCQNDHSYPYTFGGGTKLEIK
B9: VH9K1 (antibody, V domains shown)
VH: QVQLVQSGAEVKKPGSSVKVSCKASGYTFTSYWINWVKLAPGQGLEWIGDIYPGSYIPNYNEKFKNRATLTVDTSASTAYMELSSLRSEDTAVYYCAGGYFDVWGQGTTVTVSS
VL: DIVMTQSPDSLSVSLGERATINCKSSQSLLSSGNQKNYLAWYQQKPGQPPKLLIYGASTRESGVPDRFTGSGSGTDFTLTISSLQAEDVAVYYCQNDHSYPYTFGQGTKLEIK
B10: VH9K2 (antibody, V domains shown)
VH: QVQLVQSGAEVKKPGSSVKVSCKASGYTFTSYWINWVKLAPGQGLEWIGDIYPGSYIPNYNEKFKNRATLTVDTSASTAYMELSSLRSEDTAVYYCAGGYFDVWGQGTTVTVSS
VL: DIVMTQSPDSLAVSLGERATINCKSSQSLLSSGNQKNYLAWYQQKPGQPPKLLIYGASTRESGVPDRFTGSGSGTDFTLTISSLQAEDVAVYYCQNDHSYPYTFGQGTKLEIK
B11: VH9K3 (antibody, V domains shown)
VH: QVQLVQSGAEVKKPGSSVKVSCKASGYTFTSYWINWVKLAPGQGLEWIGDIYPGSYIPNYNEKFKNRATLTVDTSASTAYMELSSLRSEDTAVYYCAGGYFDVWGQGTTVTVSS
VL: DIVMTQSPDSLAVSLGERATINCKSSQSLLSSGNQKNYLAWYQQKPGQPPKLLIYGASTRESGVPDRFSGSGSGTDFTLTISSLQAEDVAVYYCQNDHSYPYTFGQGTKLEIK
B12: VH10K0 (antibody, V domains shown)
VH: QVQLVQSGAEVKKPGSSVKVSCKASGYTFTSYWINWVRQAPGQGLEWIGDIYPGSYIPNYNEKFKNRATLTVDTSASTAYMELSSLASEDTALYYCAGGYFDVWGQGTTVTVSS
VL: DIVMTQSPSSLSVSAGEKVTMSCKSSQSLLSSGNQKNYLAWYQQKPGQPPKLLIYGASTRESGVPDRFTGSGSGTDFTLTISSVQAEDLAVYYCQNDHSYPYTFGGGTKLEIK
B13: VH10K1 (antibody, V domains shown)
VH: QVQLVQSGAEVKKPGSSVKVSCKASGYTFTSYWINWVRQAPGQGLEWIGDIYPGSYIPNYNEKFKNRATLTVDTSASTAYMELSSLASEDTALYYCAGGYFDVWGQGTTVTVSS
VL: DIVMTQSPDSLSVSLGERATINCKSSQSLLSSGNQKNYLAWYQQKPGQPPKLLIYGASTRESGVPDRFTGSGSGTDFTLTISSLQAEDVAVYYCQNDHSYPYTFGQGTKLEIK
B14: VH10K2 (full humanized antibody) (antibody, V domains shown)
VH: QVQLVQSGAEVKKPGSSVKVSCKASGYTFTSYWINWVRQAPGQGLEWIGDIYPGSYIPNYNEKFKNRATLTVDTSASTAYMELSSLASEDTALYYCAGGYFDVWGQGTTVTVSS
VL: DIVMTQSPDSLAVSLGERATINCKSSQSLLSSGNQKNYLAWYQQKPGQPPKLLIYGASTRESGVPDRFTGSGSGTDFTLTISSLQAEDVAVYYCQNDHSYPYTFGQGTKLEIK
notes: Humanized full antibody, human IgG1
B15: VH10K3 (full humanized antibody) (antibody, V domains shown)
VH: QVQLVQSGAEVKKPGSSVKVSCKASGYTFTSYWINWVRQAPGQGLEWIGDIYPGSYIPNYNEKFKNRATLTVDTSASTAYMELSSLASEDTALYYCAGGYFDVWGQGTTVTVSS
VL: DIVMTQSPDSLAVSLGERATINCKSSQSLLSSGNQKNYLAWYQQKPGQPPKLLIYGASTRESGVPDRFSGSGSGTDFTLTISSLQAEDVAVYYCQNDHSYPYTFGQGTKLEIK
notes: as for B14
B16: VH11K0 (antibody, V domains shown)
VH: QVQLVQSGAEVKKPGSSVKVSCKASGYTFTSYWINWVRQAPGQGLEWIGDIYPGSYIPNYNEKFKNRATLTVDTSASTAYMELSSLRSEDTAVYYCAGGYFDVWGQGTTVTVSS
VL: DIVMTQSPSSLSVSAGEKVTMSCKSSQSLLSSGNQKNYLAWYQQKPGQPPKLLIYGASTRESGVPDRFTGSGSGTDFTLTISSVQAEDLAVYYCQNDHSYPYTFGGGTKLEIK
B17: H11K2 (full humanized antibody) (antibody, V domains shown)
VH: QVQLVQSGAEVKKPGSSVKVSCKASGYTFTSYWINWVRQAPGQGLEWIGDIYPGSYIPNYNEKFKNRATLTVDTSASTAYMELSSLRSEDTAVYYCAGGYFDVWGQGTTVTVSS
VL: DIVMTQSPDSLAVSLGERATINCKSSQSLLSSGNQKNYLAWYQQKPGQPPKLLIYGASTRESGVPDRFTGSGSGTDFTLTISSLQAEDVAVYYCQNDHSYPYTFGQGTKLEIK
notes: Humanized full antibody, human IgG1; also called VH11K2
B18: H11K3 (full humanized antibody) (antibody, V domains shown)
VH: QVQLVQSGAEVKKPGSSVKVSCKASGYTFTSYWINWVRQAPGQGLEWIGDIYPGSYIPNYNEKFKNRATLTVDTSASTAYMELSSLRSEDTAVYYCAGGYFDVWGQGTTVTVSS
VL: DIVMTQSPDSLAVSLGERATINCKSSQSLLSSGNQKNYLAWYQQKPGQPPKLLIYGASTRESGVPDRFSGSGSGTDFTLTISSLQAEDVAVYYCQNDHSYPYTFGQGTKLEIK
notes: Humanized full antibody comprising hIgG1 Fc; also called VH11K3

Columns and labels:
[1] = target: T1, Human CD112R expressed on cells (human, UniProt Q6DKI7 1-326); experiment: flow cytometry, hybridoma supernatant on activated PBMCs and NK cells
T1 construct: whole, on cells; also called HuCD112R; hCD112R
T1 sequence (looked up): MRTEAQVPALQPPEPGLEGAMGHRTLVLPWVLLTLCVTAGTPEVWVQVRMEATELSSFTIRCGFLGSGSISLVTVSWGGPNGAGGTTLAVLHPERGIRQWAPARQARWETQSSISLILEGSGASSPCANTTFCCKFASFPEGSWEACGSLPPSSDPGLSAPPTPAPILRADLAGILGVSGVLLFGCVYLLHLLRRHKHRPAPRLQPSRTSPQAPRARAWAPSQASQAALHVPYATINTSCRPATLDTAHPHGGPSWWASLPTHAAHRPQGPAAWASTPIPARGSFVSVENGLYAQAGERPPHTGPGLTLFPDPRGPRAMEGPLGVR

[2] = target: T1, Human CD112R expressed on cells; experiment: flow cytometry, hybridoma supernatant (30 ul/well) on activated PBMCs and NK cells
[3] = target: T1, Human CD112R expressed on cells; experiment: FACS, hybridoma supernatant 30 ul/well on human NK cells, goat anti-mouse-647
[4] = target: T1, Human CD112R expressed on cells; experiment: FACS, hybridoma supernatant 30 ul/well on PBMCs activated for 96 h (T cells), goat anti-mouse-647
Human CD112R (PVRIG) = target: T2, Human CD112R (PVRIG) (human, UniProt Q6DKI7 41-171, limits assumed); experiment: SPR (Biacore); purified full antibody
T2 sequence (looked up): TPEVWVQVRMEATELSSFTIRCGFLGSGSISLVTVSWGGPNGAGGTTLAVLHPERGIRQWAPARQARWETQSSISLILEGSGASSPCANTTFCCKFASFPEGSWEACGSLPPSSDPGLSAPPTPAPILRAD

[5] = target: T1, Human CD112R expressed on cells; experiment: flow cytometry on cells with endogenous or overexpressed CD112R

Binder | binding (Human CD112R (PVRIG)) | also measured
B1 | – | binding [1]: binds; binding [2]: binds; binding [3]: binds; binding [4]: binds
B2 | binds | –
B3 | binds | –
B4 | binds | –
B5 | binds | –
B6 | – | binding [1]: binds; binding [2]: binds; binding [3]: binds; binding [4]: binds
B7 | binds | binding [5]: binds
B8 | binds | –
B9 | binds | –
B10 | binds | –
B11 | binds | –
B12 | binds | –
B13 | binds | –
B14 | binds | binding [5]: binds
B15 | binds | binding [5]: binds
B16 | binds | –
B17 | binds | binding [5]: binds
B18 | binds | binding [5]: binds
